Source: patent US20050112064A1 (priority 2003, published 2005)

Test system: T1, P3W (engrailed HTH / consensus EF-hand chimeric peptide) (synthetic construct)
T1 sequence: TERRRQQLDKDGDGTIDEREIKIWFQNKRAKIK
Assay: binding assay
Settings: Gd(III) complex; relaxivity r1 at 60 MHz 21.2 to 42.4 mM-1 s-1 and at 20 MHz 16.2 to 29.6 with 1 equiv DNA; 50 mM HEPES pH 7.4, 37 C; reversed by excess NaCl; synthetic protein

GAGCTAATTAGCTC (double strand) [14-mer self-complementary duplex]
binding result: binds

Construct, isoform or probe ends are uncertain for at least one entry. Protein sequences can lack the tags named with them.
